Values quoted from earlier work, collected in US10231936B2, “Delayed release pharmaceutical formulations” (Euro-Celtique S.A., priority 2000, dated 2019).
Where a name gives a salt, the structure may show the parent alone. Some of these results come from one statement about several compounds together.

Details: conventional normal release dosage form

Row | Compound | time to maximum peak plasma concentration [h]
1 | Cc1ccc(-c2nc3ccc(C)cn3c2CC(=O)N(C)C)cc1 [Zolpidem tartrate] | ≤ 2
2 | CN1CCN(C(=O)OC2c3nccnc3C(=O)N2c2ccc(Cl)cn2)CC1 (centres unmarked) [Zopiclone] | ≤ 2
